These results are taken from publication doi:10.1101/2023.09.27.559872.

Chains of the proteins cited; added tags and fusions are not shown.
UniProt P05198: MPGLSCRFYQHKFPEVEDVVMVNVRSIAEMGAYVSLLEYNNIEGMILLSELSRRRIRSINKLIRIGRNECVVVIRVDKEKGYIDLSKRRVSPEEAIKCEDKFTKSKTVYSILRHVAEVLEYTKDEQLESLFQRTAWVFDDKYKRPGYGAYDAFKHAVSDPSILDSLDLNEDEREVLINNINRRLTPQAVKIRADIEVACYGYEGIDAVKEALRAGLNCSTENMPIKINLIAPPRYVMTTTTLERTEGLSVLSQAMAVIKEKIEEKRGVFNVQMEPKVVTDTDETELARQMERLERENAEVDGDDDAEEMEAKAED
UniProt P60842: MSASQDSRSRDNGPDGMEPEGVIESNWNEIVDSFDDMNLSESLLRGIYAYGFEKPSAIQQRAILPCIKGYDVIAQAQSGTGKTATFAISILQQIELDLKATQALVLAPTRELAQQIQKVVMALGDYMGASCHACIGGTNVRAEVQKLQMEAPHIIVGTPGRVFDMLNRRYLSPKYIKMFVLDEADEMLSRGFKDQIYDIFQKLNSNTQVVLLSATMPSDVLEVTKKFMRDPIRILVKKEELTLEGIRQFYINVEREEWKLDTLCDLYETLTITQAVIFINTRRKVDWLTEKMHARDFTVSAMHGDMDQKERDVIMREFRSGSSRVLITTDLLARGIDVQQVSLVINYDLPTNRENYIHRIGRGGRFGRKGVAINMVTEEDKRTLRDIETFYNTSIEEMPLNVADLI

These are yes or no findings as the source states them, for the method shown. In cells and extracts the contact can be indirect. Here binding means that the protein was enriched with, or labelled near, the bait; the list need not be complete. Sequences can lack the tags named with a protein.

The target in the test is T1, FLAG-BirA*-IBTK (UniProt Q9P2D0).
T1 sequence: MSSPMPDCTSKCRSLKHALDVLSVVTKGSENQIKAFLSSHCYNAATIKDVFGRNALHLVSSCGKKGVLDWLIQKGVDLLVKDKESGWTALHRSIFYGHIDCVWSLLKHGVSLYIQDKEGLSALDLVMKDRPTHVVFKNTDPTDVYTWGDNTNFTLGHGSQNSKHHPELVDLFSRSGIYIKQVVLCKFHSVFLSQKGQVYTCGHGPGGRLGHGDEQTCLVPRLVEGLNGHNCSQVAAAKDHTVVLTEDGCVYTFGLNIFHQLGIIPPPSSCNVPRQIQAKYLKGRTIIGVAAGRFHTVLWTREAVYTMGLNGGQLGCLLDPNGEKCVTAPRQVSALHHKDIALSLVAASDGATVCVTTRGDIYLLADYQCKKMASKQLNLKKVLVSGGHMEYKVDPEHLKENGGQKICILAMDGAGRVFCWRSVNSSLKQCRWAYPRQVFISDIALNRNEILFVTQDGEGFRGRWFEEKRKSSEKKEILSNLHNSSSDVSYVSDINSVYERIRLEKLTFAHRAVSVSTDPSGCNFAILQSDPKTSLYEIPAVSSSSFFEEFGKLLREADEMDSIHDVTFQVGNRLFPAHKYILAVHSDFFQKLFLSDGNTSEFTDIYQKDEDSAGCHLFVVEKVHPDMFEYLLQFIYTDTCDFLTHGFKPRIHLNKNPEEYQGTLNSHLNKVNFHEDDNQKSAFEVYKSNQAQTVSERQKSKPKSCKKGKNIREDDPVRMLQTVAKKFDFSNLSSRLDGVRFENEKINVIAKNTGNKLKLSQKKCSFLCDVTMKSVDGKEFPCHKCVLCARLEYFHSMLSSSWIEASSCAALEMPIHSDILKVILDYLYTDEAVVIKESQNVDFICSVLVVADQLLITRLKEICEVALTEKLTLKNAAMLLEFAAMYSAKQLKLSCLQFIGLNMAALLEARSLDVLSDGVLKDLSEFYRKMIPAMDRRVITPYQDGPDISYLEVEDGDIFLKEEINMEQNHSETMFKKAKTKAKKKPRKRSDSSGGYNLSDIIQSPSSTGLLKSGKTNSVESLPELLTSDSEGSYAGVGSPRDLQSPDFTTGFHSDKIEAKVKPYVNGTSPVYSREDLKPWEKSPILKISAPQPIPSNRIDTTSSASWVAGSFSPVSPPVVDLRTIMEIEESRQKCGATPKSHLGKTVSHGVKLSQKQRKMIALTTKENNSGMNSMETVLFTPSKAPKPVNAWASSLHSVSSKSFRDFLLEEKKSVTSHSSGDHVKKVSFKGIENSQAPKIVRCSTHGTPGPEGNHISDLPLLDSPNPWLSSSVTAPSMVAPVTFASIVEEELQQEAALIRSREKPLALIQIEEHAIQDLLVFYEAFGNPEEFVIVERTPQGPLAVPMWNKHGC
The test is described as follows: affinity purification with mass spectrometry.

Regarding “eIF2α, endogenous (from UniProt P05198 1-315)”, the binding entry is given as “binds”.
The result for “eIF4A1, endogenous (from UniProt P60842 1-406)” reads “binds”.
